Source: PubChem BioAssay AID328 (DTP/NCI, 2004)
The list is a part of this screen's results and no random one: it is rich in T/C values a quarter to a half above the control, in often repeated tests (any T/C) and in doses without a T/C. Other doses and runs of a compound stand elsewhere. T/C gives the treated animals as a percentage of the vehicle group. Some doses have a count of surviving animals in place of a T/C: the source holds a T/C of zero for them, seemingly a mark for toxic or unscored doses. Some survivor counts are full or nearly so, which does not show that the dose was tolerated: survival well below the control is almost never listed, so the zero probably covers shortened survival too. Survivors were counted at the toxicity check, usually on the fifth day, unless a day is given; later deaths do not show. Schedules are NCI's codes, read here as Q, the interval in days (D) or hours (H), X, the number of doses. Where survival is the endpoint, this PubChem deposit counts one and a half times the control or more as active, and values a quarter to a half above the control carry no call in these data; other NCI protocols may use other cut-offs.

Tested on: BDF1 mice, P388 leukemia ip, median survival T/C
Assay: NCI In Vivo Anticancer Drug Screen. Data for tumor model P388 Leukemia (intraperitoneal) in B6D2F1 (BDF1) mice
Details: T/C endpoint: median survival time, higher T/C = longer survival
How it was run: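 In tumour-bearing mice, survival after compound treatment is set against the vehicle group and given as a quotient.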

[1] = dose: 400.0 mg/kg/injection, schedule: Q04DX003 (ip), vehicle: saline

CC(=O)Nc1ccc2c(c1)Cc1cc(NC=O)ccc1-2
survivor count (dose: 1.5 mg/kg/injection, schedule: Q01DX009 (ip), vehicle: Klucel (hydroxypropylcellulose) (HPC)): 6 of 6 | survivor count (dose: 3.12 mg/kg/injection, schedule: Q01DX009 (ip), vehicle: Klucel (hydroxypropylcellulose) (HPC)): 6 of 6 | survivor count (dose: 6.25 mg/kg/injection, schedule: Q01DX009 (ip), vehicle: Klucel (hydroxypropylcellulose) (HPC)): 6 of 6 | survivor count (dose: 25.0 mg/kg/injection, schedule: Q01DX009 (ip), vehicle: Klucel (hydroxypropylcellulose) (HPC)): 6 of 6 | survivor count (dose: 50.0 mg/kg/injection, schedule: Q01DX009 (ip), vehicle: Klucel (hydroxypropylcellulose) (HPC)): 6 of 6 | survivor count (dose: 200.0 mg/kg/injection, schedule: Q04DX003 (ip), vehicle: Klucel (hydroxypropylcellulose) (HPC)): 6 of 6 | survivor count (dose: 400.0 mg/kg/injection, schedule: Q04DX003 (ip), vehicle: Klucel (hydroxypropylcellulose) (HPC)): 6 of 6

CC(=O)N(O)CCCCCNC(=O)CCC(=O)N(O)CCCCCNC(=O)CCC(=O)N(O)CCCCCN
survivor count (dose: 200.0 mg/kg/injection, schedule: Q01DX009 (ip), vehicle: saline with Tween-80): 5 of 6

CCCCCn1c(Cl)c(/C=N\Nc2ccc([N+](=O)[O-])cc2)c2ccccc21
survivor count (dose: 100.0 mg/kg/injection, schedule: Q01DX001 (ip), vehicle: Klucel (hydroxypropylcellulose) (HPC)): 5 of 6 | survivor count (dose: 200.0 mg/kg/injection, schedule: Q01DX001 (ip), vehicle: Klucel (hydroxypropylcellulose) (HPC)): 4 of 6 | survivor count (dose: 400.0 mg/kg/injection, schedule: Q01DX001 (ip), vehicle: Klucel (hydroxypropylcellulose) (HPC)): 4 of 6

CCCCCCCCCCCCCCCCP(=O)(OCCOCCCCCC)OCCOCCCCCC
T/C (dose: 50.0 mg/kg/injection, schedule: Q01DX009 (ip), vehicle: alcohol): 138 % of control | survivor count (dose: 50.0 mg/kg/injection, schedule: Q01DX009 (ip), vehicle: saline): 6 of 6 | survivor count (dose: 75.0 mg/kg/injection, schedule: Q01DX009 (ip), vehicle: saline): 6 of 6 | survivor count (dose: 330.0 mg/kg/injection, schedule: Q01DX001 (ip), vehicle: saline): 3 of 6

COc1cccc2c1C(=O)c1c(O)c3c(c(O)c1C2=O)C[C@@](O)(C(=O)CO)C[C@@H]3OC1CC(NC(=O)C(F)(F)F)C(O)C(C)O1 (some centres undefined)
T/C (dose: 25.0 mg/kg/injection, schedule: Q04DX009 (ip), vehicle: other): 130 % of control | T/C (dose: 50.0 mg/kg/injection, schedule: Q04DX009 (ip), vehicle: other): 148 % of control

Cc1ccc2ccccc2n1
survivor count [1]: 6 of 6

CP(c1ccccc1)c1ccccc1
T/C (dose: 100.0 mg/kg/injection, schedule: Q01DX009 (ip), vehicle: Klucel (hydroxypropylcellulose) (HPC)): 127 % of control | T/C (dose: 200.0 mg/kg/injection, schedule: Q01DX009 (ip), vehicle: Klucel (hydroxypropylcellulose) (HPC)): 136 % of control

CN1CCC23c4ccccc4NC1C21CCN(C)C3Nc2ccccc21
survivor count (dose: 40.0 mg/kg/injection, schedule: Q01DX010 (ip), vehicle: carboxymethylcellulose (CMC)): 3 of 6 | survivor count (dose: 80.0 mg/kg/injection, schedule: Q01DX010 (ip), vehicle: carboxymethylcellulose (CMC)): 0 of 6 | survivor count (dose: 160.0 mg/kg/injection, schedule: Q01DX010 (ip), vehicle: carboxymethylcellulose (CMC)): 0 of 6

O=C(Nc1ccccc1C(F)(F)F)Nc1cccc2ccccc12
survivor count (dose: 100.0 mg/kg/injection, schedule: Q01DX001 (ip), vehicle: saline with Tween-80): 6 of 6

C[S+](C)N(c1ccc(Cl)cc1)C(C)(C)C
survivor count (dose: 100.0 mg/kg/injection, schedule: Q01DX001 (ip), vehicle: saline): 0 of 6

COc1ccc(CC[N+]2=Cc3cc(OC)c(OC)cc3CC2)cc1OC
T/C (dose: 25.0 mg/kg/injection, schedule: Q01DX009 (ip), vehicle: saline): 127 % of control | survivor count (dose: 100.0 mg/kg/injection, schedule: Q04DX003 (ip), vehicle: saline): 6 of 6 | survivor count (dose: 200.0 mg/kg/injection, schedule: Q04DX003 (ip), vehicle: saline): 3 of 6 | survivor count [1]: 1 of 6
